# Some results were stated once for a whole list of compounds, not compound by compound. For at least one compound, name, drawing or mass did not settle the structure.
# System: S. aureus Oxford, S. aureus WCUH29, S. pneumoniae 1629, S. pneumoniae N1387, S. pneumoniae ERY 2, E. faecalis 1, H. influenzae Q1, M. catarrhalis 1502
# Test: MIC of test compounds against various organisms
# Assay type: cell-based
# Details: against one or more of the above range of gram positive and gram negative bacteria
structure (smiles),measurement,value
"COc1ccc2nccc([C@@H](O)CN3CCC(NCc4nc5cc(F)ccc5[nH]4)CC3)c2c1.O=C(O)C(=O)O.O=C(O)C(=O)O [Example 15, (R)-2-{4-[(5-Fluoro-1H-benzimidazol-2-ylmethyl)amino]-piperidin-1-yl}-1-(6-methoxyquinolin-4-y)-ethanol, dioxalate]",MIC,less than or equal to 2 μg/ml
